# Reference: article doi:10.1101/2023.05.20.541568
# Chains of the proteins cited; added tags and fusions are not shown. Residues count along the entry.
# UniProt Q9LVE2: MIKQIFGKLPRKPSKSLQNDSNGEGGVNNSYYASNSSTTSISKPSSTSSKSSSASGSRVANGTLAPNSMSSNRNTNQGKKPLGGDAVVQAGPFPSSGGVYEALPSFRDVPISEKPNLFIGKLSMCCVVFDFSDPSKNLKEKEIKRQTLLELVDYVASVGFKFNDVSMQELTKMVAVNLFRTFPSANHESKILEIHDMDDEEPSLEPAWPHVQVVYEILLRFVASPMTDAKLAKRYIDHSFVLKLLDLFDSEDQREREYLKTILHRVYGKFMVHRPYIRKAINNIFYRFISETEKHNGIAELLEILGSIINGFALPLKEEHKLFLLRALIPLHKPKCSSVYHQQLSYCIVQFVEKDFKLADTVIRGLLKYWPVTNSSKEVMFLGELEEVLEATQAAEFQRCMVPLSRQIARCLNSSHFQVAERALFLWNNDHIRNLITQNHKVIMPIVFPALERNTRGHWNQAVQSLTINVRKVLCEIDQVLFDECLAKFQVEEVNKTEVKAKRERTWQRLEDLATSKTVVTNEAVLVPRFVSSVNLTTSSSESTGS
# UniProt Q9LKA3, residues 23-341: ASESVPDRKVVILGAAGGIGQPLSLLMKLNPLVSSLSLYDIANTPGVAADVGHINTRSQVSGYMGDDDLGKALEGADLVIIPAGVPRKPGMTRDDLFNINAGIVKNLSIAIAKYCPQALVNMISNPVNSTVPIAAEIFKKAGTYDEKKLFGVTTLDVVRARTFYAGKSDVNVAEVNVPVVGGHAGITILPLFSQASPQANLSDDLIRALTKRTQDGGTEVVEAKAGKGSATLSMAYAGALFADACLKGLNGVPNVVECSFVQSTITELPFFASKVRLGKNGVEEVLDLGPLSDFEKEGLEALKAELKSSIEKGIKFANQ
# UniProt P93033, residues 29-492: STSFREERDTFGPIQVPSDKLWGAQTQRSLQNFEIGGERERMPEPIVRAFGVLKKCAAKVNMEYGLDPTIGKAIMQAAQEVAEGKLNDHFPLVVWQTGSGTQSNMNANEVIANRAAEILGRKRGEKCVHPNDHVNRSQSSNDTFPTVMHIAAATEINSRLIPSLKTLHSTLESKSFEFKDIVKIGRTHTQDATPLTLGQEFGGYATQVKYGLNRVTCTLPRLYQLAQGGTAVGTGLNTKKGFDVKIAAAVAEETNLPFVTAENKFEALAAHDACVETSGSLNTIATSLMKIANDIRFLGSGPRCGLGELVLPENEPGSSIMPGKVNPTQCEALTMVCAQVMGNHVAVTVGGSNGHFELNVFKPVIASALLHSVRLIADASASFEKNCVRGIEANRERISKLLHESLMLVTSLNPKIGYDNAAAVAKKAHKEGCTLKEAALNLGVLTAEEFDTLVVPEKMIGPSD
# Read-outs that look alike come from different tables or passages of the source. No constants are given. Whether binding was seen depends on the method and setting. In cells and extracts the contact can be indirect. Some binding calls cover weakened binding; strength is not graded here.
# B1: Succinate dehydrogenase (SDH2-1) (enzyme, UniProt Q8LBZ7 29-279)
# chain: TSTGAEAETKASSGGGRGSNLKTFQIYRWNPDNPGKPELQNYQIDLKDCGPMVLDALIKIKNEMDPSLTFRRSCREGICGSCAMNIDGCNGLACLTKIQDEASETTITPLPHMFVIKDLVVDMTNFYNQYKSIEPWLKRKTPASVPAKEILQSKKDRAKLDGMYECILCACCSTSCPSYWWNPESYLGPAALLHANRWISDSRDEYTKERLEAIDDEFKLYRCHTILNCARACPKGLNPGKQITHIKQLQR
# B2: Citrate synthase (CSY5) (enzyme, UniProt Q9M1D3 26-464)
# chain: SVRWLHSSELDLKSQMQEIIPEQQDRLKKLKSEQGKVPVGNITVDMVLGGMRGMTGLLWETSLLDADEGIRFRGMSIPECQKILPSAESGEEPLPESLLWLLLTGKVPTKEQANALSTELAHRAAVPAIDALPSTAHPMTQFASGVMALQVQSEFQKAYEQGDISKSKYWEPTFEDALNLIARVPVVASYVYRRMYKDGSIIPLDDSLDYGANFSHMLGFDSPQMKELMRLYVTIHSDHEGGNVSAHAGHLVGSALSDPYLSFAAALNGLAGPLHGLANQEVLLWIKLVVEECGESISKEQLKDYVWKTLNSGKVVPGYGHGVLRKTDPRYICQREFALKHLPDDPLFQLVSKLYEVVPPILTELGKVKNPWPNVDAHSGVLLNYYGLTEARYYTVLFGVSRSLGICSQLIWDRALGLPLERPKSVNMDWLDNFTRLNR
# B3: Aconitase (ACO3) (enzyme, UniProt Q9SIB9 79-990)
# chain: VSPVLDRLQRTFSSMASEHPFKGIFTTLPKPGGGEFGKFYSLPALNDPRVDKLPYSIRILLESAIRNCDNFQVTKEDVEKIIDWEKTSPKQVEIPFKPARVLLQDFTGVPAVVDLACMRDAMNKLGSDSNKINPLVPVDLVIDHSVQVDVARSENAVQANMELEFQRNKERFAFLKWGSTAFQNMLVVPPGSGIVHQVNLEYLGRVVFNTKGLLYPDSVVGTDSHTTMIDGLGVAGWGVGGIEAEATMLGQPMSMVLPGVVGFKLAGKMRNGVTATDLVLTVTQMLRKHGVVGKFVEFYGNGMSGLSLADRATIANMSPEYGATMGFFPVDHVTLQYLKLTGRSDETVAMIEAYLRANNMFVDYNEPQQDRVYSSYLELNLDDVEPCISGPKRPHDRVTLKEMKADWHSCLDSKVGFKGFAIPKEAQEKVVNFSFDGQPAELKHGSVVIAAITSCTNTSNPSVMLGAGLVAKKACDLGLQVKPWIKTSLAPGSGVVTKYLLKSGLQEYLNEQGFNIVGYGCTTCIGNSGEINESVGAAITENDIVAAAVLSGNRNFEGRVHPLTRANYLASPPLVVAYALAGTVNIDFETEPIGKGKNGKDVFLRDIWPTTEEIAEVVQSSVLPDMFRATYESITKGNPMWNKLSVPENTLYSWDPNSTYIHEPPYFKDMTMDPPGPHNVKDAYCLLNFGDSITTDHISPAGNIQKDSPAAKFLMERGVDRKDFNSYGSRRGNDEIMARGTFANIRIVNKLMNGEVGPKTVHIPSGEKLSVFDAAMRYKSSGEDTIILAGAEYGSGSSRDWAAKGPMLQGVKAVIAKSFERIHRSNLVGMGIIPLCFKSGEDADTLGLTGHERYTIHLPTDISEIRPGQDVTVTTDNGKSFTCTVRFDTEVELAYFNHGGILPYVIRNLSKQ
# Key:
# Test in all cases: split reporter
# [1] = molecular target: PP2A regulatory subunit (B’ζ) (Arabidopsis thaliana) (UniProt Q9LVE2)
# [2] = molecular target: PP2A regulatory subunit (B’ζ) (Arabidopsis thaliana) (UniProt Q9LVE2); remark: listed apart in the source
# [3] = molecular target: PP2A regulatory subunit (B’ζ) (Arabidopsis thaliana) (UniProt Q9LVE2); remark: listed apart in the source
# [4] = molecular target: PP2A regulatory subunit (B’ζ) (Arabidopsis thaliana) (UniProt Q9LVE2); remark: listed apart in the source
Molecule,binding [1],binding [3],also measured
Mitochondrial malate dehydrogenase (mMDH2) (from UniProt Q9LKA3 23-341) (enzyme),binds,,
Citrate synthase (CSY5) (from UniProt Q9M1D3 26-464) (enzyme),no binding,,
Fumarase (FUM1) (from UniProt P93033 29-492) (enzyme),no binding,,binding [2]: no binding
B1,,no binding,binding [4]: no binding
B2,,no binding,
B3,,binds,
